# Experimental data published in article PMC9715692.
# Sequences of proteins named here, by UniProt entry; tags and fusion partners are left off. A change or cut given only in a name is not applied to a line headed by its entry. Residues count along the entry.
# UniProt P9WJU0, whole entry, stated change not applied: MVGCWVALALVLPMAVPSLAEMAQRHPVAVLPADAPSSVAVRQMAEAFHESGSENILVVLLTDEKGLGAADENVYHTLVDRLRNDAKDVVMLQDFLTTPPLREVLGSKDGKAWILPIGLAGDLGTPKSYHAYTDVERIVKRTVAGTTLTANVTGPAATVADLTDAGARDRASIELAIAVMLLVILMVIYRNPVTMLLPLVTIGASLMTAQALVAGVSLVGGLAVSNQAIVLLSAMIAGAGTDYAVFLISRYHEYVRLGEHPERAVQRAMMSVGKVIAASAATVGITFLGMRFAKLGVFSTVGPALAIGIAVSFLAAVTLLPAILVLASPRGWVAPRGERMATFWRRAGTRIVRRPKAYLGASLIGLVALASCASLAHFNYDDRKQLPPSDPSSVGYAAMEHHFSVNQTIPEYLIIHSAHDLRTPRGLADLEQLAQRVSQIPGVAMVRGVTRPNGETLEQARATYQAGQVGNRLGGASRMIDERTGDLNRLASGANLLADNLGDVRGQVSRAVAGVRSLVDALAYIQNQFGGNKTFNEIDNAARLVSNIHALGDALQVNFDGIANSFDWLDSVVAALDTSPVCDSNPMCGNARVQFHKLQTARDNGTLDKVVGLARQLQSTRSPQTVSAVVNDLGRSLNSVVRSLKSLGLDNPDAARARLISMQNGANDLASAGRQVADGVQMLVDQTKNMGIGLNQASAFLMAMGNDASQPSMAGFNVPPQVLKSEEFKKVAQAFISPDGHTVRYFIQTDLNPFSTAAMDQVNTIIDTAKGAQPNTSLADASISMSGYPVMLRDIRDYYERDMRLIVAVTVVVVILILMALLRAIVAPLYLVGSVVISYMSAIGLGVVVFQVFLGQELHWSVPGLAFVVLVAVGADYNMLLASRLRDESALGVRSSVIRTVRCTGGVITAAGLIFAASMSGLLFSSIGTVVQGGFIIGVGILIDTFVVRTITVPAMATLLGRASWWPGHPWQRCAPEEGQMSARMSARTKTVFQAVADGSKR
# UniProt P01579, 24-161: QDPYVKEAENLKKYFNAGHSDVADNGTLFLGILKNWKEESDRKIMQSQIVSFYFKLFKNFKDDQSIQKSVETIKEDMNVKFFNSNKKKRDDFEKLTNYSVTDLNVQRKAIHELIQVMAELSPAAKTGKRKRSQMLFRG
# No constants are given. Whether binding was seen depends on the method and setting. Some entries that bind do so weakly or less than the wild type.
# Target: MmpL10 expressed from pMV762::mmpl10 in the Δmmpl10 Mtb transposon mutant (mmpl10-complemented strain) (Mycobacterium tuberculosis) (UniProt P9WJU0)
# Test: flow cytometry on cells; whole bacteria fixed in 4% PFA mixed with varying concentrations of cytokine overnight at 4 °C; pellets stained with anti-IFN-γ Brilliant Violet 421 (clone 4S.B3) or anti-TNF-α Alexa Fluor 700 (clone MAb11); only the binder purified
substance,measurement,value
recombinant human Interferon-γ (from UniProt P01579 24-161) (ligand),binding,binds
